The values that follow come from the supplement of paper PMC10849652.

Amino acid sequences for entries named in this document (tags omitted). A change or cut given only in a name is not applied to a line headed by its entry.
UniProt P56182: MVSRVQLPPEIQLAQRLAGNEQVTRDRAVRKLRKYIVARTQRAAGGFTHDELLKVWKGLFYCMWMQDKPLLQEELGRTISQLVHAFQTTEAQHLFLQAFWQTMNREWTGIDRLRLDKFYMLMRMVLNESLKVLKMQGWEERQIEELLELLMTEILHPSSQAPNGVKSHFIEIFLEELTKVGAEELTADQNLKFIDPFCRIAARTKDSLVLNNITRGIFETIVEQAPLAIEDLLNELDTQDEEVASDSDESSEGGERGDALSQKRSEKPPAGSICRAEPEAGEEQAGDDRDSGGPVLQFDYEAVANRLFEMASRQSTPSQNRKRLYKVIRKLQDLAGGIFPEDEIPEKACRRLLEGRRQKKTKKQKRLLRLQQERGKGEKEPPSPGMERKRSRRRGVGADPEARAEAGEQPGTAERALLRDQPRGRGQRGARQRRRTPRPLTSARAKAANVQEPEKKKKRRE
UniProt Q14684: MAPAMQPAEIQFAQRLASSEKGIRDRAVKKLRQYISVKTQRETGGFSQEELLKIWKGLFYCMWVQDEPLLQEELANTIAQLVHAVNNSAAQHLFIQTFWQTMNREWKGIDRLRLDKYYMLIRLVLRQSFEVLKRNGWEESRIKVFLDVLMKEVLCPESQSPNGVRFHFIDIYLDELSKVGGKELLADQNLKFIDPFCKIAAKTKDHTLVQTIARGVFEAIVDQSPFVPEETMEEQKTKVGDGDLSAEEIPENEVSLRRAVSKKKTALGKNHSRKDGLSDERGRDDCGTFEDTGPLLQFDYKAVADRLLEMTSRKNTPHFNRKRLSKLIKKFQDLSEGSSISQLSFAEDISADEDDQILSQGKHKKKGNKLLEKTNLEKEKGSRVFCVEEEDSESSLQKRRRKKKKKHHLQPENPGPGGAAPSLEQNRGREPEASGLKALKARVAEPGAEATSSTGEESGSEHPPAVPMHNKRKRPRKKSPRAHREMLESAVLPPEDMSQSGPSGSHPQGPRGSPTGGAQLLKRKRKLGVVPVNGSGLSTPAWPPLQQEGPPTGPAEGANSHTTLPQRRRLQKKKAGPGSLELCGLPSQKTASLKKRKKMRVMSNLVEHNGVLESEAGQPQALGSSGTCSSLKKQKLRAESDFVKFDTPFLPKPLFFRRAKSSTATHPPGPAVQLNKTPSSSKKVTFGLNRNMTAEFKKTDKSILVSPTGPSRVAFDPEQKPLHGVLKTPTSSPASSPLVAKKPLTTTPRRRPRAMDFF
UniProt Q96P16: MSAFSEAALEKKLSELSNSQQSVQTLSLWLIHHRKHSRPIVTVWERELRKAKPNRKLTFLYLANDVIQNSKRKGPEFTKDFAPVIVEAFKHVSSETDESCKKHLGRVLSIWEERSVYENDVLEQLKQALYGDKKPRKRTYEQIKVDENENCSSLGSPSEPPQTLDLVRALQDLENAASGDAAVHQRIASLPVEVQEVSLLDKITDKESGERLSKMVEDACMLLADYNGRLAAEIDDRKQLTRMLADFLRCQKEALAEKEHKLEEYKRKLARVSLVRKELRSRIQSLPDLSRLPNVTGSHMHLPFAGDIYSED
UniProt P23443: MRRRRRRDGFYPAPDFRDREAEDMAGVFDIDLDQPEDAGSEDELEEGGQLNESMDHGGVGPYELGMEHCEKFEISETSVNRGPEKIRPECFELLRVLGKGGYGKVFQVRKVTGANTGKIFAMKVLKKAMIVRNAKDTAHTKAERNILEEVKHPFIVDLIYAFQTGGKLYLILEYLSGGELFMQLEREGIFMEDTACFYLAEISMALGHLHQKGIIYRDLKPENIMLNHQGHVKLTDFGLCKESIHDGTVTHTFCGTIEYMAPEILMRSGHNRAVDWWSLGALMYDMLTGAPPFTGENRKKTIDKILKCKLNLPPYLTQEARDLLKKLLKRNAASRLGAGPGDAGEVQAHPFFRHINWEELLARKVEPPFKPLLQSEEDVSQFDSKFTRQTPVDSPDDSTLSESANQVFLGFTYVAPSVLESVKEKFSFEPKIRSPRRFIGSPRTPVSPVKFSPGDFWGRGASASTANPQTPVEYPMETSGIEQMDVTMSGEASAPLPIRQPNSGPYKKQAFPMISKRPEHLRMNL
UniProt Q9NQC3: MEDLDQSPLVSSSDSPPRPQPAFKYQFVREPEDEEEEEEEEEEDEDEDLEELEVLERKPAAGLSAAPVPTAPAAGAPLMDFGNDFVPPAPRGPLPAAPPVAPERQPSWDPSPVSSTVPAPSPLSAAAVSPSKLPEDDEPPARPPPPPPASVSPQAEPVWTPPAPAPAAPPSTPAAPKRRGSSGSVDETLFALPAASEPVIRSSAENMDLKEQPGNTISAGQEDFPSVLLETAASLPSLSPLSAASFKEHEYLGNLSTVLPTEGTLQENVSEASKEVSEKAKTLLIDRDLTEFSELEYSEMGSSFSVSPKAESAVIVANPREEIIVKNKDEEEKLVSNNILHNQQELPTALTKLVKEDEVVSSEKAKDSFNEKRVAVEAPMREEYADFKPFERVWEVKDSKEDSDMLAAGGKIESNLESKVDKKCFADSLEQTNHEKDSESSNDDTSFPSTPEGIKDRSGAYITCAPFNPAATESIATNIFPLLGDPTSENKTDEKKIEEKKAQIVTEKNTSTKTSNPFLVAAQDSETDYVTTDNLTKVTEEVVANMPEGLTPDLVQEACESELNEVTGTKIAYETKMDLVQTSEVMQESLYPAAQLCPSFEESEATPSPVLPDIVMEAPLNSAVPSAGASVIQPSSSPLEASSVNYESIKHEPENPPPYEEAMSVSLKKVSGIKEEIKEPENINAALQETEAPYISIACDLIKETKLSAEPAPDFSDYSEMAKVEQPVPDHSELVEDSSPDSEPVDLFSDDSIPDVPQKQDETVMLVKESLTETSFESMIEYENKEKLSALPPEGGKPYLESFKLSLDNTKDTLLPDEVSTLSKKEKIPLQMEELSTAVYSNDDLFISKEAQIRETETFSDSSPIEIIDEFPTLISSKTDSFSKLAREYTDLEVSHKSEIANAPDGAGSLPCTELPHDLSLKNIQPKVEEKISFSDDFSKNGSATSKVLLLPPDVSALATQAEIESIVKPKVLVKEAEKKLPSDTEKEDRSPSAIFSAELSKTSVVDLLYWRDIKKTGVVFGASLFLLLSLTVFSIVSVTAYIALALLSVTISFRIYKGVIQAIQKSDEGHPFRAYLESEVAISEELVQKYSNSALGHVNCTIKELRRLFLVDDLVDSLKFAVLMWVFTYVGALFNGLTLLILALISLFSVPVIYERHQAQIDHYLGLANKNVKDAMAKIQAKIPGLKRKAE

The list shows a part of the results.

Assay in all cases: log2 fold change, soluble protein after heating vs DMSO (PISA); higher = thermal stabilisation; K562 lysate, 10 uM; active = over 0.2 and 3.5 SD of the protein, either way, in both replicates (recomputed)
Compound in test [1]: NCC(=O)Nc1ccc(-n2nc(C(F)(F)F)cc2-c2ccc3c(ccc4ccccc43)c2)cc1
An outline of the steps:
(§1)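 Soluble protein was defined as the supernatant remaining after 21,000xg for 90 min, following pooling of heated aliquots and adjustment to 0.5% NP-40 at 4°C. Before that, crude K562 extract at 1 mg/mL protein in PBS pH 7.4 with 1 mM MgCl2 was treated with 10 μM compound for 30 min and heated for 3 min across 48°C-58°C. Quantification used TMTpro 16plex LC-MS/MS with channel sums equalised, and values are log-two fold changes in thermal stability relative to solvent controls from duplicates.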

Compound in another test: O=C(CCCCCCC(=O)Nc1ccccc1)NO [vorinostat]
An outline of the steps:
as §1

Compound in a further test: O=C(O)c1ccc2c(c1)nc(Nc1cccc(Cl)c1)c1ccncc12 [silmitasertib]
An outline of the steps: as §1

Compound in test [2]: O=C1NC(=O)C(c2cnc3ccccn23)=C1c1cn2c3c(cc(F)cc13)CN(C(=O)N1CCCCC1)CC2
An outline of the steps: as §1

Compound in another test: c1cn2cc(-c3ccc4cn[nH]c4c3)nc(Nc3ccc(N4CCOCC4)cc3)c2n1 [entospletinib]
The essentials: as §1

RRP1 (UniProt P56182): the log2 fold change in test [1] was inactive: 0.041; with vorinostat, inactive: 0.04; with silmitasertib, inactive: 0.13; in test [2] it was inactive: 0.007; in the test with entospletinib, inactive: 0.156.
On to RRP1B (UniProt Q14684), for which the log2 fold change is inactive: -0.022 in test [1]; inactive: -0.012 with vorinostat; inactive: 0.067 in the test with silmitasertib; inactive: -0.043 in test [2]; inactive: -0.003 in the test with entospletinib.
Turning to RPS12 (UniProt P25398), the log2 fold change is inactive: -0.014 in test [1]; inactive: -0.053 with vorinostat; inactive: -0.006 in the test with silmitasertib; inactive: 0.017 in test [2]; inactive: -0.004 with entospletinib.
Turning to RPRD1A (UniProt Q96P16), the log2 fold change in test [1] was inactive: 0.038; with vorinostat, inactive: -0.274; with silmitasertib, inactive: 0.065; in test [2], inactive: -0.007; with entospletinib, inactive: -0.002.
As to RPS14 (UniProt P62263), the log2 fold change in test [1] was inactive: -0.005; with vorinostat, inactive: 0.027; with silmitasertib, inactive: -0.018; in test [2], inactive: 0.04; with entospletinib, inactive: 0.018.
In the same order, the values of RPS6KB1 (UniProt P23443) are inactive: -0.049, active: -0.319, inactive: 0.132, inactive: -0.017 and inactive: -0.005.
On to RTN4 isoform 3 (UniProt Q9NQC3), for which the log2 fold change with entospletinib was inactive: -0.031.
